In patent publication US7098372B1, “Pharmaceutical compositions and methods of using secreted frizzled related protein” (Wyeth, priority 1999, dated 2006):
For at least one compound, name, drawing or mass did not settle the structure.

Columns and labels:
hOB-01-C1-PS-09 cells = assay: Alkaline phosphatase activity in hOB-01-C1-PS-09 cells; type: cell-based, human; conditions: 39° C.
Description: Unlike the parental hOB-01-C1 cell line, the hOB-01-C1-PS-09 cells proliferate 2- to 3-times faster at the permissive temperature with a doubling time of once every 2–3 days (FIG. 22A). However, like the parental cells, the hOB-01-C1-PS-09 cells stop dividing at the non-permissive temperature (FIG. 22A). […] Alkaline phosphatase and osteocalcin are two important markers of the osteocytic lineage.
In addition to vitamin D3 and PTH, the hOB-01-C1-PS-09 cells also respond to additional bone-active agents: for example, glucocorticoids and transforming growth factor (TGF)-β1. Treatment of the cells with the synthetic glucocorticoid, dexamethasone, up-regulates alkaline phosphatase activity approximately 2-fold at 34° C. (FIG. 25), and this effect is once again enhanced when the cells are incubated at 39° C.

hOB SFRP mRNA = hOB SFRP mRNA levels after treatment with various agents (method not given); type: cell-based, human; conditions: various hOB cell lines

With `C[C@@H]1C[C@H]2[C@@H]3CCC4=CC(=O)C=C[C@]4(C)[C@@]3(F)[C@@H](O)C[C@]2(C)[C@@]1(O)C(=O)CO` [dexamethasone] the “up-regulation of alkaline phosphatase activity, effect of temperature” value (hOB-01-C1-PS-09 cells) was “enhanced” and the “effect on hOB SFRP message expression” value (hOB SFRP mRNA) was “suppresses”.
